PubChem BioAssay AID493014 (National Center for Advancing Translational Sciences (NCATS), 2011)
Some of the results follow. These are further read-outs of the screen, such as a control signal, another cell line or another target. No call is given for them. Most of these compounds were active or inconclusive in the main read-out, so they are no random draw. The note in brackets gives the kind of curve behind each potency; many fits are weak.

Assay: qHTS Assay to Find Inhibitors of Chronic Active B-Cell Receptor Signaling
Details: ABC-DLBCL IkBa-CBG/CBR reporter, luminescence ratio (green luciferase fused to IkBa over red control in TMD8 lymphoma cells), 4 h
Outline: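 Compounds up to 46 uM were incubated four hours with TMD8 cells whose green CBG68 luciferase is fused to IkappaBalpha; red CBR luminescence normalised the signal, and concentration-effect curves were fitted to fusion, red and ratio data.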

[1] = measured here: CBR red luminescence, cell number
[2] = measured here: IkBa-CBG green luminescence

Row | Compound | AC50 [1] | AC50 [2]
1 | Nc1nc(NCCO)nc(NCc2ccccc2)c1[N+](=O)[O-] | 22.4 µM [falling, single point] | 
2 | NC(=O)c1cccc(S(=O)(=O)N2CCCCC2)c1 | 0.517 µM [rising, full curve, poor fit] | 
3 | C=CCOc1ccc2nc(NC(=O)OC)[nH]c2c1 | 29.1 µM [rising, single point] | 5.17 µM [falling, partial curve, poor fit]
4 | S=c1[nH]cnc2sc(-c3ccccc3)cc12 | 0.282 µM [rising, partial curve, poor fit] | 3.16 µM [falling, partial curve, poor fit]
5 | CCC(C)(C)NC(=O)CN(C(=O)CCC(=O)Nc1cc(C)ccn1)c1ccc2c(c1)OCO2 | 3.26 µM [falling, partial curve, poor fit] | 
6 | COc1cc(/C=C2\SC(=N)N(c3ccc(F)cc3)C2=O)ccc1O | 7.94 µM [falling, partial curve, poor fit] | 
7 | Cc1ccc(Nc2nc(N)nc(CN3CCN(Cc4ccc5c(c4)OCO5)CC3)n2)c(C)c1 | 35.5 µM [falling, single point] | 
8 | COCCc1ncc(CN2CCCC(C(=O)Nc3cccc(-c4cccc(C)c4)c3)C2)cn1 (stereo not drawn) | 12.6 µM [falling, single point] | 
9 | Fc1cccc(NC(=S)NC2CCCCCCC2)c1 | 1.58 µM [rising, partial curve, poor fit] | 
10 | N=c1c2c(ncn1Cc1ccco1)Oc1ccc3ccccc3c1C2c1ccccc1 (stereo not drawn) | 3.26 µM [falling, full curve] | 
11 | O=C(Nc1cccc2ccccc12)OCc1cncs1 | 3.55 µM [falling, partial curve, poor fit] | 
12 | COc1ccc(CNc2nc3nc(C)c(Cl)c(C)n3n2)cc1 | 7.08 µM [falling, partial curve] | 
13 | OC(COCC(F)(F)C(F)(F)C(F)(F)C(F)F)Cn1c2ccccc2c2ccccc21 (stereo not drawn) | 18.4 µM [falling, partial curve, poor fit] | 8.2 µM [rising, partial curve]
14 | Cn1cnnc1SCc1ccccc1 | 29.1 µM [rising, single point] | 
15 | O=C(N/N=C/C1CC2C=CC1C2)c1ccccc1O (stereo not drawn) | 1.41 µM [falling, full curve] | 
16 | Cc1ccc(C(=O)N/N=C\c2cccc(OC(=O)c3cccc(F)c3)c2)cn1 | 3.16 µM [falling, full curve] | 
17 | O=C1C=CCC(/C=C/c2ccccc2)O1 (stereo not drawn) | 5.17 µM [falling, partial curve] | 
18 | CC1CN(c2nc3c(c(=O)n(Cc4ccc(Cl)c(Cl)c4)c(=O)n3C)n2C)CC(C)O1 (stereo not drawn) | 10.3 µM [rising, partial curve, poor fit] | 
19 | CC1CCCN(CCCOc2ccc(Br)cc2Cl)C1 (stereo not drawn) | 35.5 µM [falling, single point] | 
20 | CC(C)(C)c1ccc(C(=O)N2CCC(C(=O)c3ccccc3)CC2)cc1 | 35.5 µM [falling, single point] | 
21 | Cn1c(N=Nc2ccccc2)nc2ccccc21 | 13 µM [falling, partial curve] | 18.4 µM [falling, single point]

Reformatted: results already given.
Row	Compound	AC50 [1]	AC50 [2]
14	Cn1cnnc1SCc1ccccc1	29.1 µM [rising, single point]	
15	O=C(N/N=C/C1CC2C=CC1C2)c1ccccc1O (stereo not drawn)	1.41 µM [falling, full curve]	
16	Cc1ccc(C(=O)N/N=C\c2cccc(OC(=O)c3cccc(F)c3)c2)cn1	3.16 µM [falling, full curve]	

Remaining list, next part:

Row | Compound | AC50 [1] | AC50 [2]
22 | Cc1ccc(C(=O)Nc2nc3ccccc3s2)s1 | 0.562 µM [falling, full curve, poor fit] | 
23 | COc1ccc([N+](=O)[O-])cc1C(=O)Nc1ccc(Cc2ccncc2)cc1 | 15.8 µM [rising, partial curve, poor fit] | 
24 | CNc1ccccc1C(=O)OCC(=O)N1CCN(c2ccc(OC)cc2)CC1 | 28.2 µM [falling, single point] | 
25 | CC(=O)c1c(C)nc(-c2ccccc2)nc1NC(=O)Cc1ccccc1 | 0.398 µM [rising, full curve, poor fit] | 
26 | NC(=O)c1ccc(SCC(=O)OCC(=O)NC2CCCCCCC2)c([N+](=O)[O-])c1 | 20.6 µM [falling, single point] | 
27 | OCCNc1nc(Nc2ccc(O)cc2)nc2ccccc12 | 17.8 µM [falling, partial curve, poor fit] | 
28 | CN(C)c1ccnc2sc(C(=O)c3ccccc3)c(N)c12 | 16.4 µM [falling, partial curve] | 
29 | COc1ccc(NC(=S)Nc2ccc3snnc3c2)cc1 | 4.47 µM [rising, partial curve, poor fit] | 
30 | O=C(NCc1ccc(F)cc1F)c1cc(COc2c(F)cccc2F)on1 | 31.6 µM [rising, single point] | 
31 | O=C(N/N=C\c1ccc(CN(Cc2ccc(Cl)cc2)S(=O)(=O)c2ccccc2)o1)C(=O)Nc1ccc(F)cc1 | 1.46 µM [falling, full curve] | 
32 | COc1ccc(OC)c(-c2nnc(NC(=O)C(C)Sc3nncn3C)s2)c1 (stereo not drawn) | 16.4 µM [falling, single point] | 
33 | Cc1cc(C(=O)N/N=C\C(Br)=C\c2ccccc2)c(C)o1 | 15.8 µM [falling, single point] | 
34 | O=C(Nc1cc(N2CCOCC2)ncn1)c1ccc(F)cc1 | 35.5 µM [falling, single point] | 
35 | O=S(=O)(Nc1nc2ccc(Cl)cc2s1)c1cccs1 | 5.62 µM [rising, single point] | 
36 | COc1ccc(CCNC(=O)c2cc3c(=O)n4ccccc4nc3n(C3CCCCC3)c2=N)cc1 | 8.91 µM [rising, partial curve, poor fit] | 
37 | O=C(Nc1cccc(NC(=O)c2cccs2)c1)c1cccnc1 | 22.4 µM [falling, single point] | 
38 | Cc1cc(NC(=O)/C=C/c2ccc(F)cc2)n(-c2nc3ccccc3[nH]2)n1 | 4.11 µM [falling, partial curve, poor fit] | 
39 | COc1cccc(NC(=O)c2ccc(NCCCN3CC(C)CC(C)C3)c([N+](=O)[O-])c2)c1 (stereo not drawn) | 11.2 µM [falling, partial curve, poor fit] | 
40 | O=C(CSc1nc2ccc([N+](=O)[O-])cc2[nH]1)NC1CCCCCC1 | 1.84 µM [falling, partial curve, poor fit] | 
41 | COc1ccc(C(=O)NCCCn2nc(C)cc2C)cc1S(=O)(=O)N1CCOCC1 | 0.58 µM [falling, full curve] | 
42 | CSc1ccc(/C=N/S(=O)(=O)c2ccccc2)cc1 | 2.24 µM [rising, partial curve, poor fit] | 

Row | Compound | AC50 [1] | AC50 [2]
43 | CC(=O)Nc1c(C(=O)N2CCOCC2)cnn1-c1ccc(C)c(C)c1 | 15.8 µM [falling, single point] | 
44 | Oc1c(C=NCc2ccncc2)sc2ccccc12 | 16.4 µM [falling, partial curve, poor fit] | 
45 | NC(=NC(=O)c1ccc(OCC(F)(F)F)nc1)c1ccccc1 | 10 µM [rising, partial curve] | 
46 | O=C(Nc1cnc2ccccc2c1)c1ccco1 | 25.1 µM [falling, single point] | 
47 | CCOC(=O)C1CCN(Cc2c(C(=O)N3CCOCC3)nc3c(C)cccn23)CC1 | 0.0891 µM [falling, full curve, poor fit] | 
48 | CCOC(=O)Cn1c(CN2CCc3ccccc3C2)nc2c1c(=O)n(C)c(=O)n2C | 0.146 µM [rising, full curve, poor fit] | 
49 | Cc1ccc(NC(=O)CN(C)C(=O)COc2ccccc2-c2ccccc2)cc1 | 29.1 µM [falling, single point] | 
50 | CCOC(=O)C1(Cc2cccc(F)c2)CCN(C(=O)C2CCOCC2)CC1 | 0.224 µM [rising, full curve, poor fit] | 
51 | Cc1ccc(-c2cc3nc(-c4ccccc4)cc(N)n3n2)cc1 | 0.411 µM [falling, full curve] | 
52 | CCCCC(=O)Nc1ccc(C(=O)NNC(=S)NC(=O)c2cccs2)cc1 | 3.26 µM [falling, partial curve, poor fit] | 
53 | CCOc1cc(/C=N/NC(=O)c2ccc(O)cc2)ccc1Oc1nc(Cl)ncc1F | 2.51 µM [falling, full curve] | 
54 | Cc1cccc(NC(=O)c2ccc(N3C(=O)C4C5C=CC(C6CC56)C4C3=O)cc2)c1 (stereo not drawn) | 3.55 µM [falling, partial curve] | 
55 | COC(=O)CNC(c1ccccc1)c1cc(Cl)ccc1NC(=O)c1cccc(Cl)c1 (stereo not drawn) | 29.1 µM [falling, single point] | 
56 | Cc1cc(C)c(S(=O)(=O)/N=C2/C=C(Sc3ncn[nH]3)C(=O)c3ccccc32)cc1C | 3.26 µM [falling, partial curve] | 
57 | CC1=CC(C)(C)Nc2ccc(OC(=O)c3ccco3)cc21 | 7.94 µM [falling, partial curve] | 
58 | CCOc1ccc(/C=N/NC(=O)c2ccccc2O)cc1CN1CC2CC(C1)c1cccc(=O)n1C2 (stereo not drawn) | 1.3 µM [falling, partial curve] | 
59 | CC(=O)Nc1ccc(NC(=O)C(C)OC(=O)C2(c3ccc(F)cc3)CCCC2)cc1 (stereo not drawn) | 22.4 µM [falling, single point] | 14.1 µM [rising, partial curve, poor fit]
60 | CCOC(=O)C1(Cc2cccc(OC)c2)CCN(Cc2cccnc2)CC1 | 11.2 µM [falling, partial curve] | 
61 | CCn1c(NC(=O)c2nn(C)cc2Br)nc2ccccc21 | 18.4 µM [falling, single point] | 
62 | COc1cccc(C(=O)Nc2ccc(NC(C)=O)cn2)c1 | 6.51 µM [falling, full curve, poor fit] | 
63 | Cc1cccc(NC(=O)/C=C/c2ccc(Cl)cc2)n1 | 2.06 µM [falling, full curve] | 
